These are yes or no findings as the source states them, for the method shown. In cells and extracts the contact can be indirect. Some entries that bind do so weakly or less than the wild type. Where a sequence is shown, tags or fusion partners need not be part of it.

Amino acid sequences for entries named in this document (tags omitted).
UniProt P29067: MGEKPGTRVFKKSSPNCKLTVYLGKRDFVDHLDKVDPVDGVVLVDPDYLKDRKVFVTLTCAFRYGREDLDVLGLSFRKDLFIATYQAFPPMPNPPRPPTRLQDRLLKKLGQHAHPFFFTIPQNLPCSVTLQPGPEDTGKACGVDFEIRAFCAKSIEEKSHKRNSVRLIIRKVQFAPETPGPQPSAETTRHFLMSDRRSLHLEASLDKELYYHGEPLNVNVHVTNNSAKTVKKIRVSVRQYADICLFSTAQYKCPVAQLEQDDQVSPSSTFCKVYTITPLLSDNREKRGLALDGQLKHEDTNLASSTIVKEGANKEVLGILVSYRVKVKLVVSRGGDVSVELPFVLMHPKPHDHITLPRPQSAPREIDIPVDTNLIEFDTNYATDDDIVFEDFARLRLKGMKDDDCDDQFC

Experiment [1] has as its target T1, mouse Ccr1 with a C-terminal renilla luciferase variant 8 (Rluc8) reporter (mouse) (UniProt P51675).
T1 sequence: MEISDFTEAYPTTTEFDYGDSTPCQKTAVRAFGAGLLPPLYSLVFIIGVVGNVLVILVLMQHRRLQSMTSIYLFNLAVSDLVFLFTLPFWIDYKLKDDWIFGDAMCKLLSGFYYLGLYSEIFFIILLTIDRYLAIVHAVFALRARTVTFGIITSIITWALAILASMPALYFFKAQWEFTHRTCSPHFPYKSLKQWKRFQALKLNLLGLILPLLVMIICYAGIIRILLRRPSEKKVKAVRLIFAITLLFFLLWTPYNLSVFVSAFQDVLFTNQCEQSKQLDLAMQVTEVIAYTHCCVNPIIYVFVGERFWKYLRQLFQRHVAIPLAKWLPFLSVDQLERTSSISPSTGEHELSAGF
Briefly: FRET or BRET; 293T cells cotransfected with beta-arrestin2 mYFP and receptor-Rluc8 (50 or 100 ng plasmid) or empty pcDNA-Rluc8; coelenterazine h 5 uM; buffer alone or 100 nM Ccl3, Ccl9/10 or Ccl22; net BRET (YFP/Rluc8) recorded over time.

Experiment [2] concerns the target T2, mouse Ccr1l1 (Ccr1-like 1) with a C-terminal renilla luciferase variant 8 (Rluc8) reporter (mouse) (UniProt P51676).
T2 sequence: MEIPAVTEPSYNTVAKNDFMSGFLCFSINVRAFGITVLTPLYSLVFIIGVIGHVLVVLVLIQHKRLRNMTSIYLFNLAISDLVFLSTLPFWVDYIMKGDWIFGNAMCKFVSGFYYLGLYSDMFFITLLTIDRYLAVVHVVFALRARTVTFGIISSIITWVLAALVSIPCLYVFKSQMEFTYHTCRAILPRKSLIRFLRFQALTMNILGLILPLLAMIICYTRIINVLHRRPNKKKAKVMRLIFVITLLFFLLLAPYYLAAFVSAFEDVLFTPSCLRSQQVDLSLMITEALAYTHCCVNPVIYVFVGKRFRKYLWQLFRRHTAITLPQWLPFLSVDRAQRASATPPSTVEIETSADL
The experiment is described as above.

Regarding “beta-arrestin2 mYFP (from UniProt P29067 1-410)”, the binding result in experiment [1] is given as “binds”; in experiment [2], “no binding”.

Source of the values: article PMC7949164.
